# Like-named read-outs stand apart in the source and are kept apart here.
smiles,measurement,setting,value
"O=c1[nH]cc(F)c(=O)[nH]1 [VII, 5-Fluorouracil]",mg present as parent drug in solution in donor phase,IPM,0.0022 mg
same,mg present as parent drug in solution in donor phase,PG,2.6 mg
